PubChem BioAssay AID652243, Drosophila RNAi Screening Center – 2013

Purpose: 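Fly regulators of androgen-dependent reporter output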 (primary screen)
Cells: Drosophila S2R+ cells
Reagents: long dsRNA against Drosophila genes
Duration: 72 h (48 h, then 24 h hormone)
Challenge: synthetic androgen R1881 at 10 nM for 24 h
Measurement: 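Per-well raw luminescence of the androgen-driven firefly reporter and of the Renilla control, two replicates each, without normalisation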
Reading the numbers: firefly reporter light: higher = more light from androgen-responsive reporter; Renilla control light: higher = more constitutive control signal (cell number, transfection)
Rule for the call: 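Across duplicate plates, a knock-down whose log firefly/Renilla ratio shifted a set fold down or up from the GFP/LacZ control mean was a hit; the downward cut appears as both 1.5 and 3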
Meaning of the calls: active = hit: reporter lowered or raised; inactive = no hit
The deposit covers about 24,000 reagents; this is a random part of those with a known target gene and a result. In the full data, 246 (1%) are marked active. 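Plates not normalised; calls are printed but the firefly/Renilla ratio behind them is not deposited; fold cut for lowering reported inconsistently.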 Raw values vary from plate to plate and are shown uncorrected. The record does not give: the amount of reagent.

How did the screen score Cdc14 [DRSC03013]?
firefly reporter light, replicate 1: 1.91e5; firefly reporter light, replicate 2: 2.06e5; Renilla control light, replicate 1: 1.43e6; Renilla control light, replicate 2: 1.29e6; call: inactive

For Cdc14 [DRSC26430], what was measured?
firefly reporter light, replicate 1: 3.11e5; firefly reporter light, replicate 2: 2.57e5; Renilla control light, replicate 1: 5.54e5; Renilla control light, replicate 2: 7.41e5; call: inactive

For Cdc14 [DRSC37051], how do the results read?
call: inactive

With Mal-A8 [DRSC07234], what does the deposit list?
firefly reporter light, replicate 1: 2.39e5; firefly reporter light, replicate 2: 2.26e5; Renilla control light, replicate 1: 1.30e6; Renilla control light, replicate 2: 1.50e6; call: inactive

For CG32071 [DRSC22298], how do the results read?
firefly reporter light, replicate 1: 5.92e5; firefly reporter light, replicate 2: 5.03e5; Renilla control light, replicate 1: 1.71e6; Renilla control light, replicate 2: 1.33e6; call: inactive

Which result is listed for CG32071 [DRSC25705]?
firefly reporter light, replicate 1: 8.42e5; firefly reporter light, replicate 2: 8.87e5; Renilla control light, replicate 1: 7.34e5; Renilla control light, replicate 2: 7.57e5; call: inactive

Which result is listed for Ephrin [DRSC17165]?
firefly reporter light, replicate 1: 2.35e5; firefly reporter light, replicate 2: 1.97e5; Renilla control light, replicate 1: 2.26e6; Renilla control light, replicate 2: 1.87e6; call: inactive

What did the screen give for CG9928 [DRSC03274]?
firefly reporter light, replicate 1: 1.02e5; firefly reporter light, replicate 2: 1.54e5; Renilla control light, replicate 1: 1.08e6; Renilla control light, replicate 2: 1.19e6; call: inactive

With Psi [DRSC07519], what was measured?
firefly reporter light, replicate 1: 80225; firefly reporter light, replicate 2: 87631; Renilla control light, replicate 1: 1.80e6; Renilla control light, replicate 2: 1.80e6; call: inactive

How did the screen score Psi [DRSC25220]?
firefly reporter light, replicate 1: 4.91e5; firefly reporter light, replicate 2: 3.00e5; Renilla control light, replicate 1: 5.72e5; Renilla control light, replicate 2: 6.21e5; call: inactive

For Psi [DRSC38971], what does the deposit list?
firefly reporter light, replicate 1: 8.20e5; firefly reporter light, replicate 2: 8.12e5; Renilla control light, replicate 1: 1.39e6; Renilla control light, replicate 2: 1.67e6; call: inactive

What did the screen give for CG31380 [DRSC15688]?
firefly reporter light, replicate 1: 1.44e5; firefly reporter light, replicate 2: 2.11e5; Renilla control light, replicate 1: 1.88e6; Renilla control light, replicate 2: 1.77e6; call: inactive
